Test results: PMC3441718
These are yes or no findings as the source states them, for the method shown. A result given as binding can be weak or reduced; the word gives no strength. Where a sequence is shown, tags or fusion partners need not be part of it. Blank lines part the entries; values can stand above or below the molecule they belong to.

By UniProt entry, the sequences of proteins in these tests, tags left out. Where a name states a change or a piece, a line headed by the entry shows the natural chain unless it says otherwise.
UniProt Q1D3Z1: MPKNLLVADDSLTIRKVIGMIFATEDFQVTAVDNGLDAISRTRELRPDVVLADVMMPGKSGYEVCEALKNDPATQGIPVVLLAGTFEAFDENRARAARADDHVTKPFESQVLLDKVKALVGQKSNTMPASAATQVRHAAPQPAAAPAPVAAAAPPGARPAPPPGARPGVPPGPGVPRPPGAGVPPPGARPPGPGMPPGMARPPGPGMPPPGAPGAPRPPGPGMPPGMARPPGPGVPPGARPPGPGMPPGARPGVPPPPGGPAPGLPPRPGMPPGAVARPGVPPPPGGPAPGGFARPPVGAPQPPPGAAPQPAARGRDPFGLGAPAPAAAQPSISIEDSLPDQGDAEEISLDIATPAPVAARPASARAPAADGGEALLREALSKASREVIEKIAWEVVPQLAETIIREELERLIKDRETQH

Experiments:
[1] = molecular target: T1, N-terminally GST-tagged MglA (M. xanthus) (UniProt Q1DB04); test: pull-down; 0.2 mg purified His6-RomR mixed with 0.2 mg purified GST-MglA or GST, glutathione beads, buffer D (50 mM NaH2PO4 pH 8.0, 300 mM NaCl), 5 h, 4°C; elution with 10 mM glutathione; immunoblot with anti-GST and anti-RomR; both purified
T1 sequence: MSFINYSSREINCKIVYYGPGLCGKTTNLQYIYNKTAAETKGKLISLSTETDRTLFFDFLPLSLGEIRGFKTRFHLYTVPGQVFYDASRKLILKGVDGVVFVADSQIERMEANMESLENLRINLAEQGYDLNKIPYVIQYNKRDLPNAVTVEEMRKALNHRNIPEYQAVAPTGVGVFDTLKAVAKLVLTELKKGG

[2] = molecular target: MalE-tagged RomR (M. xanthus) (UniProt Q1D3Z1); test: pull-down; 0.2 mg purified His6-MglB mixed with 0.2 mg purified MalE-RomR or MalE, amylose beads, buffer D (50 mM NaH2PO4 pH 8.0, 300 mM NaCl), 5 h, 4°C; elution with 10 mM maltose; immunoblot with anti-MalE and anti-MglB; both purified

binding [1]: binds
Molecule: N-terminally His6-tagged RomR (from UniProt Q1D3Z1)

binding [2]: binds
B1: N-terminal His6-tagged MglB (protein, UniProt Q1DB03 1-159)
chain: MGTQLVMYEEEFTKINAVCDRLTKDANAKVVFLVDKNGQLISSAGQTQNIDTTSLASLTAGNVAAMGGLAKLIGENEFPNQFHEGAKDSLYMTIVGSRVVLVVIFDNRTSLGLVRLRIKKASDELTKIFESLVKKTDSPGAGSPFAEISDDDIDNLFSE
